According to publication PMC10950228:
Residue numbers refer to the chain shown, from its start. No constants are given. Whether binding was seen depends on the method and setting. In cells and extracts the contact can be indirect. Some results given as binding are weak or reduced against the parent protein; the word gives no strength.

How the values were obtained:
Experiment in all cases: pull-down; native streptavidin pulldown of SFB-RFWD3 (WT, C315A or C315A/I639K) from transfected HEK293T lysate (NETN buffer, 100 mM NaCl, 0.5% NP-40, benzonase), cells treated or not with 2 mM HU for 3 h; immunoblot
[1] = biological target: T1, SFB-RFWD3 WT (human) (UniProt Q6PCD5)
T1 sequence: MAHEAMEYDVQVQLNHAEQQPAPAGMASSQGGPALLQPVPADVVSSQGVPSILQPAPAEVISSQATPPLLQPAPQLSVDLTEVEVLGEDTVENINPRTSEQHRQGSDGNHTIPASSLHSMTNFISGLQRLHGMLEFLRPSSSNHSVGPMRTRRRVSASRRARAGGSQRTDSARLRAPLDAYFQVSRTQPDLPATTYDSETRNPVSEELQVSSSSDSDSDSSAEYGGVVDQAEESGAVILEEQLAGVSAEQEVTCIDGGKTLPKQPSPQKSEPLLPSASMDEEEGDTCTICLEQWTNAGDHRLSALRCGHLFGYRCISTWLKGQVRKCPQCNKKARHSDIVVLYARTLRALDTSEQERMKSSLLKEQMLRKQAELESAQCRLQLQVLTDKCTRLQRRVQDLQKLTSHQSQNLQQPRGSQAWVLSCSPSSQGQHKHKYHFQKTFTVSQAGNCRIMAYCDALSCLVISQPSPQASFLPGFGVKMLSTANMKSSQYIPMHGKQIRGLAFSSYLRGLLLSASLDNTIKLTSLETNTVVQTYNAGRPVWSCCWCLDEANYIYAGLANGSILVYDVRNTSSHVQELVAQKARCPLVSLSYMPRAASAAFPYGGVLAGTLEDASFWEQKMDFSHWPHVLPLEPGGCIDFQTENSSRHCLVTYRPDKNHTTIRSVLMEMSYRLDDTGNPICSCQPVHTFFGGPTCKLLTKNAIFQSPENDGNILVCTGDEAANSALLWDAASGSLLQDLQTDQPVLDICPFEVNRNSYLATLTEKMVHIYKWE

[2] = biological target: T2, SFB-RFWD3 C315A/I639K (human) (UniProt Q6PCD5)
T2 sequence: T1 sequence with C315A, I639K

[3] = biological target: T3, SFB-RFWD3 C315A (human) (UniProt Q6PCD5)
T3 sequence: T1 sequence with C315A

B1: endogenous SMARCAL1 (protein, UniProt Q9NZC9 1-954)
chain: MSLPLTEEQRKKIEENRQKALARRAEKLLAEQHQRTSSGTSIAGNPFQAKQGPSQNFPRESCKPVSHGVIFKQQNLSSSSNADQRPHDSHSFQAKGIWKKPEEMPTACPGHSPRSQMALTGISPPLAQSPPEVPKQQLLSYELGQGHAQASPEIRFTPFANPTHKPLAKPKSSQETPAHSSGQPPRDAKLEAKTAKASPSGQNISYIHSSSESVTPRTEGRLQQKSGSSVQKGVNSQKGKCVRNGDRFQVLIGYNAELIAVFKTLPSKNYDPDTKTWNFSMNDYSALMKAAQSLPTVNLQPLEWAYGSSESPSTSSEGQAGLPSAPSLSFVKGRCMLISRAYFEADISYSQDLIALFKQMDSRRYDVKTRKWSFLLEEHSKLIAKVRCLPQVQLDPLPTTLTLAFASQLKKTSLSLTPDVPEADLSEVDPKLVSNLMPFQRAGVNFAIAKGGRLLLADDMGLGKTIQAICIAAFYRKEWPLLVVVPSSVRFTWEQAFLRWLPSLSPDCINVVVTGKDRLTAGLINIVSFDLLSKLEKQLKTPFKVVIIDESHFLKNSRTARCRAAMPVLKVAKRVILLSGTPAMSRPAELYTQIIAVKPTFFPQFHAFGLRYCDAKRMPWGWDYSGSSNLGELKLLLEEAVMLRRLKSDVLSQLPAKQRKIVVIAPGRINARTRAALDAAAKEMTTKDKTKQQQKDALILFFNRTAEAKIPSVIEYILDLLESGREKFLVFAHHKVVLDAITQELERKHVQHIRIDGSTSSAEREDLCQQFQLSERHAVAVLSITAANMGLTFSSADLVVFAELFWNPGVLIQAEDRVHRIGQTSSVGIHYLVAKGTADDYLWPLIQEKIKVLAEAGLSETNFSEMTESTDYLYKDPKQQKIYDLFQKSFEKEGSDMELLEAAESFDPGSASGTSGSSSQNMGDTLDESSLTASPQKKRRFEFFDNWDSFTSPL
binding [1]: binds
binding [2]: no binding
binding [3]: binds
